According to PMC8632698:
No constants are given. Whether binding was seen depends on the method and setting. Binding seen in cells or lysates may run through a third protein. Some entries that bind do so weakly or less than the wild type.

T1: Profilin 3 (mouse (endogenous in testis)) (UniProt Q9DAD6)
T1 sequence: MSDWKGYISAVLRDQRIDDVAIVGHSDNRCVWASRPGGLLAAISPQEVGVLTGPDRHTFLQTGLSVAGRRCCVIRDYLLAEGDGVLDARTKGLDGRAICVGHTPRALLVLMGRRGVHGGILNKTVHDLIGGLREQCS

T2: TRIM27 (mouse (endogenous in testis)) (UniProt Q62158)
T2 sequence: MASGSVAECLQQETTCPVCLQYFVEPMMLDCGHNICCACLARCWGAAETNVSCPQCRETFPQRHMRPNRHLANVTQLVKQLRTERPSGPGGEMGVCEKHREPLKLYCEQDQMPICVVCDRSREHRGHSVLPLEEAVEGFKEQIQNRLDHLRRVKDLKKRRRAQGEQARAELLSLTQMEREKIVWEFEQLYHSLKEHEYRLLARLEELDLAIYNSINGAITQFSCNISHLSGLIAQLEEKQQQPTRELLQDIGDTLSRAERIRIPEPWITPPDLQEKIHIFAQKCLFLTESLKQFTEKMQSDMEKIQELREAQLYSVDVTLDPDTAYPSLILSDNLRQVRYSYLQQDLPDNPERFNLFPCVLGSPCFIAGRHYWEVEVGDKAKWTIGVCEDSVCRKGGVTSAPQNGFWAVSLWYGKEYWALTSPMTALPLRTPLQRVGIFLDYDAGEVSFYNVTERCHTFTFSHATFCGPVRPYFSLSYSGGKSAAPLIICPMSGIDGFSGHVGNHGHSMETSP


Experiments:
[1] = biological target: T1, Profilin 3 (mouse (endogenous in testis)); experiment: co-IP; whole adult testis lysate in RIPA buffer, sonicated; IP with anti-PFN3 or anti-TRIM27 antibody on Dynabeads M-280 Sheep Anti-Rabbit IgG; eluate on silver-stained SDS-PAGE and immunoblot
[2] = biological target: T2, TRIM27 (mouse (endogenous in testis)); experiment: as above

| binding [1] | binding [2] | Binder |
| --- | --- | --- |
| binds | – | TRIM27 (protein, UniProt Q62158 1-513) MASGSVAECLQQETTCPVCLQYFVEPMMLDCGHNICCACLARCWGAAETNVSCPQCRETFPQRHMRPNRHLANVTQLVKQLRTERPSGPGGEMGVCEKHREPLKLYCEQDQMPICVVCDRSREHRGHSVLPLEEAVEGFKEQIQNRLDHLRRVKDLKKRRRAQGEQARAELLSLTQMEREKIVWEFEQLYHSLKEHEYRLLARLEELDLAIYNSINGAITQFSCNISHLSGLIAQLEEKQQQPTRELLQDIGDTLSRAERIRIPEPWITPPDLQEKIHIFAQKCLFLTESLKQFTEKMQSDMEKIQELREAQLYSVDVTLDPDTAYPSLILSDNLRQVRYSYLQQDLPDNPERFNLFPCVLGSPCFIAGRHYWEVEVGDKAKWTIGVCEDSVCRKGGVTSAPQNGFWAVSLWYGKEYWALTSPMTALPLRTPLQRVGIFLDYDAGEVSFYNVTERCHTFTFSHATFCGPVRPYFSLSYSGGKSAAPLIICPMSGIDGFSGHVGNHGHSMETSP |
| – | binds | Profilin 3 (protein, UniProt Q9DAD6 1-137) MSDWKGYISAVLRDQRIDDVAIVGHSDNRCVWASRPGGLLAAISPQEVGVLTGPDRHTFLQTGLSVAGRRCCVIRDYLLAEGDGVLDARTKGLDGRAICVGHTPRALLVLMGRRGVHGGILNKTVHDLIGGLREQCS |
